Results as given in PubChem BioAssay AID504444 (National Center for Advancing Translational Sciences (NCATS), 2011).
The whole screen tested about 360,000 compounds, of which about 7,500 (2.1%) were called active. Inconclusive means that the source gave no clear call. Such entries were picked first, then a sample of the others. Calls come from the whole dose curve; as a rule, active = well fitted inhibition curve with a large enough effect; inconclusive = small, poorly fitted or top-dose-only effect, or effect the other way; inactive = flat fitted curve, though single readings scatter. Potencies of inconclusive entries are doubtful fits and often do not repeat.
Potency is the fitted concentration of half-maximal effect.

Experiment: Nrf2 qHTS screen for inhibitors; note: nearly all actives have a fitted effect of over 60% in size
Details: A549 ARE-Fluc reporter, luciferase luminescence, 18-24 h; series mostly up to 46 µM
Summary of the method: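 Two sequential reads on A549 ARE_Fluc cells exposed to compound for 18-24 h: a CellTiter-Fluor fluorescence read for viability, then a luciferase luminescence read for Nrf2/ARE activity.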
With `Cn1nc(C(F)(F)F)c(-c2cccc(C(F)(F)F)c2)c1NC(=O)Nc1ccc(F)cc1` the Potency was inconclusive: 23.1 µM [falling, partial curve, poor fit].
With `c1cc[n+](CCCC[n+]2ccccc2)cc1` the Potency was “inactive”.
In the case of `CCOc1cc(-c2noc(CCC(=O)Nc3cccnc3)n2)ccc1OC`, the Potency is reported as inconclusive: 13 µM [falling, partial curve].
With `O=C(Nc1nc(-c2ccccn2)cs1)c1cc(Cl)ccc1[N+](=O)[O-]` the Potency was active: 4.11 µM.
In the case of `CC(C)Oc1ccc(CSc2nnc3n(C)c(=O)c4c5c(sc4n23)CCCC5)cc1`, the Potency is reported as inconclusive: 7.31 µM [falling, partial curve, poor fit].
For `CCN(c1ccccc1)c1nnc(NC(=O)Nc2ccc(C)cc2)s1`, the Potency was “inactive”.
In the case of `O=C(OCc1cc(=O)n2nc(-c3cccs3)sc2n1)c1ccc(F)cc1`, the Potency is reported as “inactive”.
With `Cc1ccccc1-n1ncc(C(C)NC(=O)c2ccco2)c1C` (configuration not stated) the Potency was inconclusive: 29.1 µM [activator, single point].
In the case of `c1ccc(COc2ncnc3c2ncn3CCCN2CCN(c3ccccn3)CC2)cc1`, the Potency is reported as inconclusive: 25.9 µM [falling, single point].
With `COc1cc([C@@H]2c3cc4c(cc3[C@@H](O[C@@H]3O[C@@H]5CO[C@@H](C)O[C@H]5[C@H](O)[C@H]3O)[C@H]3COC(=O)[C@H]23)OCO4)cc(OC)c1O` the Potency was inconclusive: 0.651 µM [falling, full curve].
In the case of `Cc1ccc(OCC(=O)Nc2ccccc2C(N)=O)cc1`, the Potency is reported as inconclusive: 16.4 µM [activator, single point].
For `CC1CCCC(C)N1C(=O)CNCc1ccc2c(c1)OCO2` (configuration not stated), the Potency was “inactive”.
In the case of `COc1ccc(NC(=O)CCCNC(=O)Cn2cnc3sc4c(c3c2=O)CCCC4)c(OC)c1`, the Potency is reported as “inactive”.
For `CC(=O)c1ccc(OCCCN2CCCCC2)cc1`, the Potency was inconclusive: 23.1 µM [activator, partial curve, poor fit].
For `COC(=O)c1c(NC(=O)c2cccs2)sc2c1CCC(C)C2` (configuration not stated), the Potency was inconclusive: 7.31 µM [activator, partial curve, poor fit].
For `COc1ccc(CNC(=O)CCC(=O)N2CC3CCCN3c3ccccc32)c(OC)c1` (configuration not stated), the Potency was inconclusive: 16.4 µM [falling, single point].
For `COc1cccc(N(C(=O)c2cccs2)c2nc3ccccc3s2)c1`, the Potency was inconclusive: 25.9 µM [activator, single point].
For `Cc1cccc(NC(=O)c2cc(NC(=O)C3CCCCC3C(=O)O)ccc2N2CCCCC2)c1` (configuration not stated), the Potency was inconclusive: 25.9 µM [falling, single point].
With `COc1ccc(NC(=O)CSc2ccc(-c3ccccn3)nn2)cc1OC` the Potency was inconclusive: 32.6 µM [falling, single point].
With `CCN(CC)c1ccc(/C=N/NC(=O)OC(C)(C)C)cc1` the Potency was inconclusive: 14.6 µM [activator, partial curve].
With `O=C(CSc1nc2ccsc2c(=O)n1CC1CCC(C(=O)O)CC1)c1ccc(F)cc1` (configuration not stated) the Potency was inconclusive: 23.1 µM [falling, single point].
For `COc1ccc(-n2nc3c(c2NC(=O)COc2ccccc2F)CS(=O)(=O)C3)cc1`, the Potency was “inactive”.
For `CN(c1ncnc(N)c1[N+](=O)[O-])C1CCS(=O)(=O)C1` (configuration not stated), the Potency was “inactive”.
With `COC(=O)c1[nH]c2ccc(C)cc2c1NC(=O)CN1CCc2cc(OC)c(OC)cc2C1` the Potency was inconclusive: 23.1 µM [falling, single point].
For `COc1ccc(CC(=O)Nc2ccccc2NC(=O)Cc2ccc(OC)cc2)cc1`, the Potency was “inactive”.
For `O=C(c1ccc(CS(=O)Cc2ccccc2Cl)o1)N1CCN(c2cccc(Cl)c2)CC1` (configuration not stated), the Potency was inconclusive: 29.1 µM [falling, single point].
With `N#CCCN(C(=O)CO/N=C/c1cccc([N+](=O)[O-])c1)c1ccccc1` the Potency was inconclusive: 0.058 µM [falling, full curve, poor fit].
For `COc1cc(Br)c(C(C)NC(=O)c2ccc(C)cc2)cc1OC` (configuration not stated), the Potency was inconclusive: 20.6 µM [falling, single point].
With `Cc1cc(N=Cc2c(O)n(-c3cccc(C(F)(F)F)c3)c(=O)c3ccccc23)no1` the Potency was inconclusive: 1.64 µM [falling, partial curve, poor fit].
With `Cc1ccccc1NCC(=O)N/N=C\c1ccc([N+](=O)[O-])s1` the Potency was inconclusive: 16.4 µM [falling, single point].
For `O=C(Nc1ccccn1)c1ccc(S(=O)(=O)c2ccc(Cl)cc2)cc1`, the Potency was active: 5.8 µM.
For `Cc1ccc(S(=O)(=O)N2CCN=C2SCc2c(F)cccc2Cl)cc1`, the Potency was inconclusive: 6.51 µM [falling, single point].
In the case of `CC(C)(C)NC(=S)NCCc1ccccc1`, the Potency is reported as inconclusive: 6.51 µM [activator, partial curve].
With `Cc1nn(-c2cccc(Cl)c2)nc1C(=O)Nc1cccc(C(=O)NC2CC2)c1` the Potency was inconclusive: 20.6 µM [falling, partial curve, poor fit].
For `O=C(Nc1ccccc1)c1ccc(-c2ccccc2)s1`, the Potency was inconclusive: 8.2 µM [activator, partial curve].
In the case of `CC(C)C(=O)Nc1ccc(-c2nc3ncccc3o2)cc1`, the Potency is reported as inconclusive: 23.1 µM [falling, single point].
In the case of `COC(=O)c1cc(S(=O)(=O)NCC2CCN(Cc3ccc(C)cc3)CC2)c[nH]1`, the Potency is reported as inconclusive: 29.1 µM [activator, single point].
With `COC(=O)C(CC(=O)c1ccc(Br)cc1)n1cccn1` (configuration not stated) the Potency was “inactive”.
For `CC(C)N(Cc1nc(-c2ccccc2)no1)C(=O)CN(C)S(=O)(=O)c1ccc(Br)cc1`, the Potency was inconclusive: 6.51 µM [falling, partial curve, poor fit].
With `Cn1c(SCc2cccc([N+](=O)[O-])c2)nc2ccccc2c1=O` the Potency was inconclusive: 18.4 µM [falling, single point].
With `Cc1c(C(=O)OCC(=O)N(CCC#N)c2ccccc2)oc2c1ccc1ccccc12` the Potency was inconclusive: 18.4 µM [falling, single point].
In the case of `COc1ccc2cc(-c3cc(C(=O)OCC(=O)NC4CCS(=O)(=O)C4)c4ccccc4n3)ccc2c1` (configuration not stated), the Potency is reported as active: 11.6 µM.
